The structures appear in SMILES notation.

Amino acid sequences for entries named in this document (tags omitted). A change or cut given only in a name is not applied to a line headed by its entry.
UniProt P28593: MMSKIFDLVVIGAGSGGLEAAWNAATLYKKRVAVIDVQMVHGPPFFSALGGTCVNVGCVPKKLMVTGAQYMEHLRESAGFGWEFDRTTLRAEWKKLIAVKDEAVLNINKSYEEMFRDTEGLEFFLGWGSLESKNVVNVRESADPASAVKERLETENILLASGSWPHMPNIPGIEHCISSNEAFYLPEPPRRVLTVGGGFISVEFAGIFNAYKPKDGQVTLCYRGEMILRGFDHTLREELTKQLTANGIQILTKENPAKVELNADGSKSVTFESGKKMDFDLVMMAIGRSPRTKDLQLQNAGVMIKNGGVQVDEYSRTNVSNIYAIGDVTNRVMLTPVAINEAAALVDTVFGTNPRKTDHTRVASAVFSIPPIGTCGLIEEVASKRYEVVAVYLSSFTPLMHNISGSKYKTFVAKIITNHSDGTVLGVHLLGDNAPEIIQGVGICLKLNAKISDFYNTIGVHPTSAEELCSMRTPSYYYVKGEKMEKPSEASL

What is called IC50 is the concentration at which inhibition is half-maximal.

The target of the test is Trypanothione reductase (Trypanosoma cruzi, UniProt P28593). The test is described as follows: Inhibition of Trypanosoma cruzi trypanothione reductase expressed in Escherichia coli BL21(DE3) assessed as reduction of oxidized trypanothione preincubated for 30 mins measured for 30 mins by spectrophotometric analysis.

In the case of `CN(C)CCCN1c2ccccc2CCc2ccc(Cl)cc21` [CLOMIPRAMINE], the IC50 turned out to be 12.3 µM.
